Results from PubChem BioAssay AID624291 (National Center for Advancing Translational Sciences (NCATS), 2012).
About 220 (0.063%) of roughly 350,000 compounds were called active. This list was built around the results that the source calls inconclusive (neither active nor inactive); the mix of calls is not that of the screen. Calls follow the shape of the dose curve; as a rule, active = well fitted activation curve with a large enough effect; inconclusive = small, poorly fitted or top-dose-only effect; inactive = no such curve, though single readings can be large or run the other way. A potency beside an inconclusive call is a rough fit, not a confirmed value.

Test: qHTS for Activators of Integrin-Mediated Alleviation for Muscular Dystrophy; also: nearly all actives have a fitted effect of over 60% in size;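 as to activation: 100% = response of the positive control SU9516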
Details: alpha7betagal myoblasts, beta-gal FDG fluorescence, 48 h; activation: at 38.3 µM (top of the series)
How it was run: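 Alpha7betagal+/- myoblasts (passage 13) were plated 16-24 hr, then exposed to compounds (1:260 dilution of DMSO stock) for 48 hours at 37C. After MPER lysis, β-galactosidase reporter activity was read as FDG fluorescence (ex 480/em 540) after 30 minutes.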
Potency is read from the fitted curve at half-maximal effect.

Row | SMILES | Potency | activation
1 | Cc1ccc2nc(N(CCN(C)C)C(=O)C3=COCCO3)sc2c1 | inconclusive: 5.01 µM [activator, single point] | 
2 | Nc1cc(C(=O)OCC(=O)NNC(=O)c2ccccc2)ccc1Cl |  | inactive: 24.7%
3 | O=Nc1c(-c2ccccc2)cc2ccccn12 | inconclusive: 1 µM [activator, partial curve, poor fit] | 
4 | NC(=O)c1nsc(C(=O)N(CC(=O)NCc2ccccc2)c2cccc(F)c2)c1N |  | inactive: 21.6%
5 | O=C(CN1CCC(Cc2ccccc2)CC1)N1CCc2ccccc2C1 |  | inactive: -32.3%
6 | Cc1cc(C)cc(NC(=S)NCc2ccncc2)c1 |  | inactive: -20.5%
7 | Cc1occc1C(=O)NC1CCCCCCC1 |  | inactive: 3.63%
8 | COc1ccc(C(C)(C)C)cc1NC(=O)COC(=O)c1cc(SC)ccc1Cl |  | inactive: 16.2%
9 | O=C(O)CN1C(=O)/C(=C\c2cc(Br)ccc2OCc2ccc([N+](=O)[O-])cc2)SC1=S | inconclusive: 28.2 µM [activator, single point] | 
10 | O=C(Nc1ccc(N2CCN(C(=O)c3ccccc3)CC2)cc1)c1ccc2c(c1)OCO2 |  | inactive: 3.23%
11 | COc1ccc(OCCCn2cccc2/C=C2/C(=N)N3OC(C)=CC3=NC2=O)cc1 | inconclusive: 3.16 µM [activator, single point] | 
12 | CC(Nc1cccnc1)=C(C#N)C#N | inconclusive: 1 µM [activator, full curve, poor fit] | 
13 | Cc1ccc(S(=O)(=O)N(Cc2cc3ccc(C)cc3[nH]c2=O)c2ccccc2)cc1 | inconclusive: 5.01 µM [activator, single point] | 
14 | O=C(O)c1ccc(Nc2nc(-c3cccnc3)cs2)cc1 | inconclusive: 3.98 µM [activator, full curve, poor fit] | 
15 | Cc1sc(Cc2nc(O)cs2)nc1-c1ccccc1 |  | inactive: -22.3%
16 | COc1cc2ncnc(NCc3ccco3)c2cc1OC | inconclusive: 3.98 µM [activator, single point] | 
17 | O=C(CSc1nc(O)c(C2CCCCC2)c(=O)[nH]1)N1CCOCC1 | inconclusive: 28.2 µM [activator, single point] | 
18 | Cn1nnc(NC(=S)NC(=O)c2cccc3c(Br)cccc23)n1 | inconclusive: 7.94 µM [activator, partial curve, poor fit] | 
19 | Cc1nn(-c2ccccc2)c(C)c1/C=N/NC(=O)CSc1nnc(-c2ccccc2)n1-c1ccc(Cl)cc1 | inconclusive: 5.01 µM [activator, single point] | 
20 | O=C(NCc1ccccc1)c1nc(S(=O)(=O)Cc2ccccc2)ncc1Cl |  | inactive: -24.2%
21 | COc1ccc(C2C3=C(CCCC3=O)Nc3c(-c4ccccc4)c(C)nn32)cc1 (stereo not given) |  | inactive: 1.62%
22 | O=C(Nc1cccc2ncccc12)C(c1ccccc1)c1ccccc1 | inconclusive: 2.82 µM [activator, single point] | 
23 | O=C(Nc1ccccc1)N1N=C(c2ccc(F)cc2)CC1c1ccc(F)cc1 (stereo not given) |  | inactive: 5.51%
24 | COc1ccc([N+](=O)[O-])cc1NC(=S)NC(C)=O |  | inactive: -0.392%

Row | SMILES | Potency | activation
25 | CCC1=NN(C(=O)CCc2ccccc2O)C(O)(C(F)(F)F)C1 (stereo not given) |  | inactive: 21.1%
26 | CCCOc1cccc(C2C(C(=O)c3ccc(C)o3)=C(O)C(=O)N2c2nc(C)c(C(C)=O)s2)c1 (stereo not given) |  | inactive: -25.2%
27 | N#CCc1nn2c(-c3ccccc3)ccnc2c1C#N | inconclusive: 28.2 µM [activator, single point] | 
28 | CCn1cc(C(=O)N(C)c2ccccc2F)c2cc(OC)c(OC)cc2c1=O | inconclusive: 15.8 µM [activator, single point] | 
29 | C#CCOc1c(Br)cc(/C=C2/C(=O)ON=C2C)cc1OCC | inconclusive: 1.78 µM [activator, single point] | 
30 | COC(=O)COc1cc(C)cc2oc(=O)c(CC(=O)OC)c(C)c12 |  | inactive: -11.6%
31 | CCc1ccc(N=C2NC(=O)/C(=C/c3cc(OC)c(O)c(OC)c3)S2)cc1 | inconclusive: 2.82 µM [activator, single point] | 
32 | O=C(N/N=C/C=N/NC(=O)c1ccco1)c1ccco1 | inconclusive: 2.82 µM [activator, single point] | 
33 | CCNc1nnc(SCC(=O)c2c(N)n(C3CC3)c(=O)[nH]c2=O)s1 | inconclusive: 28.2 µM [activator, single point] | 
34 | N/C(=N\OC(=O)c1ccc([N+](=O)[O-])cc1)c1ccccn1 | inconclusive: 28.2 µM [activator, single point] | 
35 | CC(=O)N(Cc1ccc(Cl)cc1)c1cnccn1 | inconclusive: 5.01 µM [activator, single point] | 
36 | Cc1cc(C(=O)N/N=C/c2cc(Br)ccc2OC(=O)c2ccccc2Cl)n[nH]1 |  | inactive: -46%
37 | Cc1ccc(C)c(Cn2nc(-c3cc(C)ccc3C)ccc2=O)c1 | inconclusive: 5.62 µM [activator, partial curve, poor fit] | 
38 | CCCCOC1CC(c2ccc(OCc3ccc(OC)cc3)c(OC)c2)N(C)O1 (stereo not given) | inconclusive: 14.1 µM [activator, single point] | 
39 | CC(Oc1ccccc1)C(=O)NCc1cccnc1 (stereo not given) | inconclusive: 12.6 µM [activator, partial curve, poor fit] | 
40 | COc1ccc(OC)c2c1C(=O)C(Cl)=C(Cl)C2=O | inconclusive: 0.501 µM [activator, full curve, poor fit] | 
41 | CCCCSCCCNC(=O)Nc1ccc(C)c(C)c1 | inconclusive: 3.55 µM [activator, single point] | 
42 | CN(C)C(=C(C#N)C#N)N1CCN(c2ccc(Cl)cc2)CC1 | inconclusive: 14.1 µM [activator, partial curve, poor fit] | 
43 | COc1cc(NC(=O)CSc2nc3[nH]c(=O)cc(O)c3s2)cc(OC)c1OC |  | inactive: -2.27%
44 | CCOC(=O)CN1C(=O)/C(=C/c2ccccc2Br)Oc2ccccc21 | inconclusive: 0.708 µM [activator, full curve, poor fit] | 
45 | CC(=C/c1ccccc1)/C=N/n1c(-c2ccncc2)n[nH]c1=S | inconclusive: 1.58 µM [activator, full curve, poor fit] | 
46 | O=C(O)c1cc(-c2ccc(/C=N/NC(=S)Nc3ccccc3)o2)ccc1Cl | inconclusive: 2.82 µM [activator, single point] | 
47 | COc1ccc(-c2cc(C(=O)OCC(=O)c3cccc([N+](=O)[O-])c3)c3cc(C)ccc3n2)cc1 | inconclusive: 5.62 µM [activator, full curve, poor fit] | 
48 | O=C(Cn1cc(/C=N/NC(=O)c2cccc3ccccc23)c2ccccc21)Nc1ccc(F)cc1 |  | inactive: -17.3%

Row | SMILES | Potency | activation
49 | COC(=O)C1=CNC=C(C(=O)OC)C1c1ccccc1Cl | inconclusive: 28.2 µM [activator, single point] | 
50 | Cc1ccn(C(=O)c2cc3c(C)nn(-c4ccccc4)c3s2)n1 |  | inactive: -5.81%
51 | O=C(NCc1cccc(Cl)c1)c1ccc(S(=O)(=O)Nc2cccc(C(F)(F)F)c2)cc1 | inconclusive: 1 µM [activator, partial curve, poor fit] | 
52 | O=S(=O)(/N=C(/Nc1cccnc1)c1ccccc1)c1ccc(F)cc1F | inconclusive: 3.16 µM [activator, partial curve, poor fit] | 
53 | Cc1cccc(NC(=S)NNC(=O)c2ccccc2Br)c1 | inconclusive: 2.24 µM [activator, partial curve, poor fit] | 
54 | CN1CCN(CCC(=O)Nc2ccc3c(c2)OCO3)CC1 |  | inactive: -3.14%
55 | COC(=O)c1cccc(NC(=O)NC(=O)c2ccccc2Cl)c1 |  | inactive: -26.6%
56 | O=C(Nc1cccc(F)c1)C1CCN(C(=O)Cc2ccccc2)CC1 | inconclusive: 0.355 µM [activator, full curve, poor fit] | 
57 | CCN1CCS/C1=C/C=C/C1=[N+](CC)CCS1 |  | inactive: -54.1%
58 | Fc1cccc(Cn2cc(C(=S)N3CCOCC3)c3ccccc32)c1 | inconclusive: 3.55 µM [activator, single point] | 
59 | CCn1c(=S)[nH]c2c(=O)n(C)c(=O)n(C)c21 | inconclusive: 0.501 µM [activator, full curve, poor fit] | 
60 | Cc1ccc(C(OCC(O)CNC(CO)C(O)c2ccc([N+](=O)[O-])cc2)c2ccccc2)cc1 (stereo not given) |  | inactive: -18.7%
61 | CN1CCN(c2nc3c(c(=O)n(C)c(=O)n3C)n2CCSc2nnnn2-c2ccccc2)CC1 |  | inactive: 19.8%
62 | COC(=O)c1ccc(CSc2nnc(-c3ccccc3)n2C)o1 | inconclusive: 0.631 µM [activator, full curve, poor fit] | 
63 | O=S(=O)(c1ccc(Cl)cc1)c1nc(-c2ccccc2F)oc1NCCN1CCOCC1 | inconclusive: 0.891 µM [activator, full curve, poor fit] | 
64 | Cc1sc(NC(=O)CCC(=O)O)c(C#N)c1C | inconclusive: 1.12 µM [activator, partial curve, poor fit] | 
65 | O=S(=O)(c1cccs1)N1CCN(c2ccnc3cc(Cl)ccc23)CC1 |  | inactive: -44%
66 | CCOc1ccc(/C=C/C(=O)Nc2cccc(C(C)=O)c2)cc1 |  | inconclusive: -55.2% [activator]
67 | Cc1cc(C)c(C)c(S(=O)(=O)Nc2ccccc2C(=O)O)c1C | inconclusive: 22.4 µM [activator, single point] | 
68 | CCOC(=O)c1c(NC(=O)Cn2nc(C(F)(F)F)cc2C)sc(C)c1C | inconclusive: 0.794 µM [activator, partial curve, poor fit] | 
69 | CC(C)(C)NC(=O)c1cc(NC(=O)c2ccco2)cc(NC(=O)c2ccco2)c1 | inconclusive: 17.8 µM [activator, single point] | 
70 | Cc1oc(CSCCSCc2cc(C(=O)O)c(C)o2)cc1C(=O)O | inconclusive: 5.01 µM [activator, single point] | 

Gathered by group, those above containing a tert-butyl group (2)
Row | SMILES | Potency | activation
8 | COc1ccc(C(C)(C)C)cc1NC(=O)COC(=O)c1cc(SC)ccc1Cl |  | inactive: 16.2%
69 | CC(C)(C)NC(=O)c1cc(NC(=O)c2ccco2)cc(NC(=O)c2ccco2)c1 | inconclusive: 17.8 µM [activator, single point] | 
